Experimental data: US20110280807A1, “Methods and Models for Stress-Induced Analgesia” (UNIVERSITY OF GEORGIA RESEARCH FOUNDATION, INC., priority 2005, published 2011)

Assay: LC/MS/MS quantification of endocannabinoids in brain tissue after footshock
Type: in vivo, rat
Conditions: dorsal midbrain samples containing dorsolateral periaqueductal gray

CCCCC/C=C\C/C=C\C/C=C\C/C=C\CCCCOC(CO)CO [2-AG, 2arachidonylglycerol]
elevation of 2-AG level, stressor vs non-shocked control rats: 40.6%
